For two molecules, binding results are on record in doi:10.1101/2022.04.11.487628.

By UniProt entry, the sequences of proteins in these tests, tags left out.
UniProt P63279: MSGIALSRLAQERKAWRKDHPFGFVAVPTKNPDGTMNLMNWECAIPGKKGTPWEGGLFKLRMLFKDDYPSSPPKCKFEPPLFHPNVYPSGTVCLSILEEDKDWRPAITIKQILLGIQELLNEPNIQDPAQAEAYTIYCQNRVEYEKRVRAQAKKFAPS

The target of experiment [1] is HA-Strep-mCherry tagged full-length UBC9 wild-type (^mCUBC9) (UniProt P63279). Put plainly: co-IP.
The target in experiment [2] is T1, 6x-His-EME1 (bacterially co-expressed with MUS81) (human) (UniProt Q96AY2).
T1 sequence: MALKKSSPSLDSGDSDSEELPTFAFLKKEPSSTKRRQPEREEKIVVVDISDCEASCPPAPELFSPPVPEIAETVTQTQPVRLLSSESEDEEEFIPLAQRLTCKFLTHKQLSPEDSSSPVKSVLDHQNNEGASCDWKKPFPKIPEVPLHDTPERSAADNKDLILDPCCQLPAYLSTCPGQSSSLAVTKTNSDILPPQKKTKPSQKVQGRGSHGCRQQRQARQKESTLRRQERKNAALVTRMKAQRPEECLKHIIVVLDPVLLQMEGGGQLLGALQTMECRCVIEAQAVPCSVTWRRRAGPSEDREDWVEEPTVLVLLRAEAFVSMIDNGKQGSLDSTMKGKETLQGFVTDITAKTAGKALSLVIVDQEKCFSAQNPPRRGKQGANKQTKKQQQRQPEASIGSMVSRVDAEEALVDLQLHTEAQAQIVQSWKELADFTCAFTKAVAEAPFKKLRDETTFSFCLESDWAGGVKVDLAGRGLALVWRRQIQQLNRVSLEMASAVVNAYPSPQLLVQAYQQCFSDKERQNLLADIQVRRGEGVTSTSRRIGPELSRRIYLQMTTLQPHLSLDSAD
Put plainly: co-purification.

Results are given in words; binding and its absence hold for the method and conditions named. For some assays here: In cells and extracts the contact can be indirect. Some binding calls cover weakened binding; strength is not graded here. For some assays here: Sequences can lack the tags named with a protein.

B1: EME1 co-precipitated with ^mCUBC9 (detected with anti-EME1 serum) (protein, UniProt Q96AY2 1-570)
chain: T1 sequence
For B1, the binding entry in experiment [1] is listed as “binds”.

B2: MUS81 (bacterially co-expressed with 6x-His-EME1) (enzyme, UniProt Q96NY9 1-551)
chain: MAAPVRLGRKRPLPACPNPLFVRWLTEWRDEATRSRRRTRFVFQKALRSLRRYPLPLRSGKEAKILQHFGDGLCRMLDERLQRHRTSGGDHAPDSPSGENSPAPQGRLAEVQDSSMPVPAQPKAGGSGSYWPARHSGARVILLVLYREHLNPNGHHFLTKEELLQRCAQKSPRVAPGSARPWPALRSLLHRNLVLRTHQPARYSLTPEGLELAQKLAESEGLSLLNVGIGPKEPPGEETAVPGAASAELASEAGVQQQPLELRPGEYRVLLCVDIGETRGGGHRPELLRELQRLHVTHTVRKLHVGDFVWVAQETNPRDPANPGELVLDHIVERKRLDDLCSSIIDGRFREQKFRLKRCGLERRVYLVEEHGSVHNLSLPESTLLQAVTNTQVIDGFFVKRTADIKESAAYLALLTRGLQRLYQGHTLRSRPWGTPGNPESGAMTSPNPLCSLLTFSDFNAGAIKNKAQSVREVFARQLMQVRGVSGEKAAALVDRYSTPASLLAAYDACATPKEQETLLSTIKCGRLQRNLGPALSRTLSQLYCSYGPLT
Turning to B2, in experiment [2], the binding entry is recorded as “binds”.
